Experimental data: paper doi:10.1101/2021.11.11.468339
No constants are given. Whether binding was seen depends on the method and setting. In cells and extracts the contact can be indirect. Some entries that bind do so weakly or less than the wild type.

The chains behind the UniProt entries cited, without tags or fusion partners.
UniProt A4L7N3: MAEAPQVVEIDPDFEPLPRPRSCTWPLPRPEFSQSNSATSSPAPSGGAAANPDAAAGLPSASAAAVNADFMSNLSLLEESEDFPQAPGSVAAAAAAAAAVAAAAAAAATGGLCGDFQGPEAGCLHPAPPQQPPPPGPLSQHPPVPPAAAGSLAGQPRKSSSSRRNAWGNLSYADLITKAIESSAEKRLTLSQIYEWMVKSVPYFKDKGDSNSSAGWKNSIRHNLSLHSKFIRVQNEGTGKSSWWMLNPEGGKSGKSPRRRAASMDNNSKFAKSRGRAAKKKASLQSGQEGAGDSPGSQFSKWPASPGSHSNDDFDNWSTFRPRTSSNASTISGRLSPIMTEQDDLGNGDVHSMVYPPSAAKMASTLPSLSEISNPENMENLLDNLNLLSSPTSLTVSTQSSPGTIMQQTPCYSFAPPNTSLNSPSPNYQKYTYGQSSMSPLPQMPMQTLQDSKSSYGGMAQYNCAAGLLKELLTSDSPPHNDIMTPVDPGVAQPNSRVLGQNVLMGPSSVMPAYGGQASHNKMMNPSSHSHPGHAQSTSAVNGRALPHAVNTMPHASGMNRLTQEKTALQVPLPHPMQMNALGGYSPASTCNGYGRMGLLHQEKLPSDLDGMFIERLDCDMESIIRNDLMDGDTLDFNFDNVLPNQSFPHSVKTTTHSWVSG
UniProt F1RNW6: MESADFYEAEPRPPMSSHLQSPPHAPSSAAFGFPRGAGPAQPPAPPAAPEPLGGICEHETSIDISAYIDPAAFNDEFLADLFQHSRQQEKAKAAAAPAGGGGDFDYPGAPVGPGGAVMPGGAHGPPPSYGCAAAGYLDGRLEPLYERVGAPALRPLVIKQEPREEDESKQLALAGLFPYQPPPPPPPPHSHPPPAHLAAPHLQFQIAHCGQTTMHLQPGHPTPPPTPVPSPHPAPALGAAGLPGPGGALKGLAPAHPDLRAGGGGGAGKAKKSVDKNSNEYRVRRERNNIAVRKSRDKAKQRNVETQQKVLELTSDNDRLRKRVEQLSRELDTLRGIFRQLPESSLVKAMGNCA

Columns and labels:
[1] = molecular target: FoxO1 (pig (endogenous in porcine pre-adipocytes)) (UniProt A4L7N3); experiment: co-IP
[2] = molecular target: C/EBPα (pig (endogenous in porcine pre-adipocytes)) (UniProt F1RNW6); experiment: co-IP

Row | Substance | binding [1] | binding [2]
1 | C/EBPα (from UniProt F1RNW6 1-354) | binds | 
2 | FoxO1 (from UniProt A4L7N3 1-662) |  | binds
